From US7256006B2, “Method for determining the influence of a test substance on the heart activity of a vertebrate” (Multi Channel Systems MCS GmbH, priority 2003, dated 2007)

Tested on: ventricular myocytes from chicken embryos
Experiment: extracellular MEA field potential (FPdur) measurement on spontaneously beating heart cells
Assay type: cell-based
Protocol: The heart muscle cells were obtained by trypsin digestion of the isolated ventricle of chicken embryos (10-12 days after fertilization). The heart was freed of blood vessels and atria. The cells were cultured in MEM medium supplemented with 10% fetal calf serum (FCS). One to two days before the measurement, the medium was replaced by standard Tyrode solution.
The standard Tyrode solution was then replaced by a Tyrode solution with 5 μM of a test substance and the change in FPdur was determined. Thereafter, the concentration of the test substance was increased in logarithmic steps. A measurement was now taken every 10 minutes.
In measurements with quinidine, 0.5% DMSO was added to the cell Tyrode since quinidine is not water-soluble. The control experiment was also carried out with DMSO here.
In these qualitative evaluations, i.e. comparison of data from the respective control experiment and the data derived from addition of the QT-modifying substance, possible changes in the heart rate were taken into account.
For the normalized case, the FPdur value was divided by the square root of the time span (in seconds) between two action potentials.

CCCCc1oc2ccccc2c1C(=O)c1cc(I)c(OCCN(CC)CC)c(I)c1 [amiodarone]
effect on the QT interval: prolongating effect
